Out of some 53,000 sequences screened, about 3,700 (7%) were called active.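 How the source made its calls: active means gene knockdowns whose robust z-score for IL-1 alpha signal is at least 2 or at most -2, so actives lie on both sides; inactive means the rest.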 Some of the results follow.
Test: Components of the Cytosolic LPS Sensing Pathway: Gene Identification via Genome-wide siRNA Screen;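 further: robust z of the log signal after scaling to non-targeting control siRNA wells of the plate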
Settings: RAW264.7 macrophages, IL-1a HTRF, actives lie on both sides, screened at 100 nM (by protocol), cells primed 5 h with Pam3CSK4 first
In short: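 IL-1a HTRF of supernatants after 24 hour LipidA transfection of Pam3CSK4-primed (5 hours) RAW264.7 cells, 48h post-siRNA transfection (100 nM). Scores: percent of plate negative-control median, then log-based robust z-score.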

Row | Sequence | z-score
1 | GGAAUCUGUUGUUUCUCUUTT against Lpcat3 | inactive: 0.612
2 | GGAGCUGUCACACCAUGAATT against Twsg1 | inactive: 0.0846
3 | GGGUGAGUACUCUUUAAAUTT against Nudt4 | inactive: -1.53
4 | GCGUGUGGAAGAAAAAGAATT against Nedd8 | inactive: -0.952
5 | GCACACACGUAGAAGCGGATT against Erdr1 | inactive: -0.597
6 | GGGAGUUACAGCGGUAUGUTT against Krt9 | inactive: -0.686
7 | GGCUAACCUGAGCAAACAGTT against Plvap | active: -2.21
8 | GGAAGGCAUUUUUCAGGUATT against Popdc3 | inactive: 1.22
9 | GGAGUUGUCUACCAAAGUUTT against Reep5 | inactive: 0.609
10 | ACUCAGUAGUUAAUGUGGGTT against Ypel2 | inactive: 0.0543
11 | CCCUAAAAAUUUUACCAAGTT against Mpp6 | inactive: 0.841
12 | CCUGAAUGACCUAGGGCCUTT against Adam8 | inactive: 0.286
13 | CCAGAAGUCUUGCUGUCUGTT against Arpp21 | inactive: -0.427
14 | GCCCGAGAAGUGAAUCUUCTT against Pop7 | inactive: 1.2
15 | GCAUUUAAUGGCAUUACUGTT against Otol1 | inactive: 0.596
16 | CGUUAUUUGAUUUCUUGGATT against Tdrd3 | inactive: 0.373
17 | GCCUUCCUGAAUUUAAAGATT against Myo5b | inactive: 1.33
18 | GCCCAAAAAUACUGGAUAUTT against Atp6ap2 | inactive: -2
19 | GGUGCAAAGCCCUUUAAGUTT against Klf7 | inactive: -0.334
20 | GCAUUAGCUGAUCAGCAUATT against Herc3 | inactive: 0.836
21 | GCCACACACCUUCUAUAAUTT against Ptprs | inactive: -0.62
22 | CCAAUUACCUGAAUAAAGCTT against Epb41l5 | inactive: 1.19

Row | Sequence | z-score
23 | GGUUCUGGUGGUGAAUGUGTT against Kcnd1 | inactive: -1.51
24 | GGCUUCCUCAUCGAUAUAATT against Ccnh | inactive: 0.21
25 | GGAGAUCAAAGAUUUGAUUTT against Pi4k2a | inactive: 1.75
26 | GCACUGAUGAUGUGGUGGCTT against Smdt1 | inactive: 1.63
27 | GCUGUUUUACCUUAAUCCCTT against Tnfsf18 | inactive: 0.601
28 | GGCCAGGUUGAGGAUUUUGTT against Nop58 | inactive: -0.807
29 | GGACACAUAAUGUCUACCUTT against Unc93a | inactive: -0.629
30 | GGACCAGAGUAACUUGAAUTT against Zfp128 | inactive: -0.66
31 | CCAUUAAUUGAUGAUACUCTT against 1700019D03Rik | inactive: 0.531
32 | GCAACAUGGAAUGACCGCUTT against Cul2 | inactive: 0.553
33 | GGGUACCUGUCCAAGGUCATT against Mfn2 | inactive: 0.849
34 | GCGGUCAUGACAAGUCACUTT against Slc9a7 | inactive: -0.24
35 | GGCUGAAGAGGAUCGGUACTT against Atpif1 | active: 2.08
36 | GGAAUUUGAAGACACAGAATT against Arl2bp | inactive: -0.278
37 | GCAACUAUAGUGCUCUCACTT against Ggt7 | inactive: 0.974
38 | GGCCUAUCAGAUAAAGAAGTT against Vps37b | inactive: -1.04
39 | GGGUGAGUUGUUAAAUCCUTT against Marchf11 | inactive: -0.443
40 | GGAAGAGAGACUCAGCUCUTT against Galp | inactive: -0.832
41 | GCCGUAGGUUAGAGAAUCGTT against Nxnl1 | inactive: -0.348
42 | GGAAGCUAUGAGUUUGGAATT against Rsph1 | inactive: -0.732
43 | GGACCUUUAGCUGGUUUAGTT against Sowaha | inactive: 0.559
44 | GCUUAGAACCCUUUUACAATT against Anp32a | inactive: -0.14

Row | Sequence | z-score
45 | GGGUCUUGUGAGAAAGUAUTT against Fads1 | inactive: -1.37
46 | GGUGACAAACAAAAACAAATT against Zdhhc14 | inactive: -1.72
47 | GGAAAACAGCUUUGAUUGGTT against Tmem232 | inactive: 0.868
48 | GGACAUGCAGCAAAUCCAUTT against Ninj1 | inactive: -0.264
49 | GGUACCUUUGCUACAUAAATT against Pramel48 | inactive: 0.869
50 | UCUCCUUCCUAACUUCAACTT against Tmem252 | inactive: 0.747
51 | CCCUGUGAAAUAUUGAUAATT against Vmn1r32 | inactive: 0.0683
52 | GGAGAACGGCUACAACACATT against Fgf22 | inactive: -1.41
53 | GGGAGUAGAUUCCAUUCCATT against Rnpep | inactive: 1.63
54 | CCUACUACACCACUUGGGUTT against Dpm2 | inactive: 0.365
55 | GGAGCUACAAUCUGAAGUATT against Ppp1r2-ps9 | inactive: 1.47
56 | GGGAUGUAGUAAGCAAAGUTT against Gpc4 | inactive: 0.69
57 | GGAUCAGAUAAAGCAAAUUTT against Eif3b | inactive: 0.0607
58 | GGUGUAACAUCAAAGCAGATT against Tkfc | inactive: -0.216
59 | GGACUUGCCUUGAUCGCUATT against Mars2 | inactive: 0.853
60 | UGCCACUGCCAAAAAAUAATT against Tex18 | inactive: -0.838
61 | GGAAUUCCAUUUUCAGAAATT against Lrrd1 | inactive: -0.393
62 | GGAGAAGAAGGUUCUUGCCTT against Hoxb13 | inactive: -1.03
63 | GCAGAAGUGCUAUUCUUGUTT against Cnbp | inactive: 0.108
64 | GGGACUGGAAUCAAUGAACTT against Rgn | inactive: 0.396
65 | GCUUUGGACGAACGAAUGCTT against Rassf6 | inactive: 0.832
66 | GCAACUGUUCUACGUCUGATT against Tmprss2 | inactive: 1.63

Row | Sequence | z-score
67 | GGGUCAAAGGUCAAGGCUCTT against Gpr20 | inactive: 0.074
68 | GGUUGACCAGAUUGAGAAATT against Scaf11 | inactive: -0.128
69 | GGACAAAAAAGAAGGUGAATT against A730049H05Rik | inactive: -1.12
70 | GGUCUUCACACAACGAACUTT against Mxd4 | inactive: -0.618
71 | CCAUUAAGCAGCAAUAUUUTT against Pcdhga11 | inactive: -0.0617
72 | GGAAGAAGGGUUUCAACGGTT against Mef2d | inactive: 0.0569
73 | GGACUUCACUUUUCUAUGATT against Tmem64 | inactive: 1.47
74 | GGAGACCUUCUGUUUUCUGTT against Ptcd1 | inactive: -0.303
75 | GGAUUUGGUGAACAUCCGUTT against Setd6 | inactive: -0.114
76 | GGUGGAUCUGAAUAAGUGCTT against Sdhb | inactive: -1.37
77 | GCUGAUUGUCAAGGAAUAUTT against Tspyl1 | inactive: -0.816
78 | CGAGAUUUUUGUAUCGUUUTT against Kat14 | inactive: 1.57
79 | GAUGCUGGUUGACCUCCUATT against Olfr368 | inactive: 0.288
80 | GCCCUGAAAUAGAAGUUGGTT against A930024E05Rik | inactive: 0.735
81 | UGCCUCAAUCAUAAGUCCCTT against Olfr730 | inactive: -0.551
82 | GGUCGUGAGCUUUAUGAGATT against Myo1d | inactive: 0.429
83 | CCAAAGUGUUCCAAAAUCATT against Zfp729a | inactive: -0.296
84 | GCAUUAGGAAAGUAAUAAGTT against Olfr11 | inactive: -0.513
85 | GGAGAGAUGGAUACAUUUCTT against Atp5j | inactive: 1.65
86 | GGAAGAUGAUGCUUUCAAATT against Il18 | inactive: -0.0314
87 | GGUGCUGGAUGAAUUUGGGTT against Zp1 | inactive: -0.416
88 | GGAUGCUUGGCUGAAGAACTT against Ptprs | inactive: -0.296

Row | Sequence | z-score
89 | GGACUUCACAAUUUAAGUUTT against Il5 | inactive: 0.141
90 | AACUAUACGUCCGCUCACUTT against C8g | inactive: -0.213
91 | UCACAACUGUCUGUUCUCATT against Klk1b3 | inactive: -1.19
92 | GCAUUGUUAGUACUUAGCUTT against Vmn1r216 | inactive: 0.0791
93 | CGACAACAAUCUGGCCUAUTT against Ap2s1 | active: 2.09
94 | GGUCAAGCCAGUGGGCUAATT against Tpgs1 | inactive: -1.38
95 | GCCUCUUUAUAAUAUAAGGTT against Pcgf6 | inactive: -0.687
96 | GGAGCUGAUGACUUCAGGCTT against Mmp19 | inactive: 1.17
97 | GGAUCUGGUGACAAACGUATT against Cabyr | active: 2.04
98 | GGGUUUUAUCUGUAGUACATT against Gon4l | inactive: 1.96
99 | CCAUUGUGUUAAUUCAUGGTT against Kcnj15 | inactive: 0.644
100 | GCCUCGAUUCACCAAGUGUTT against Ghr | inactive: -0.663
101 | GGUGUGGAUCUUUCGUAAUTT against Il1f9 | inactive: 0.696
102 | GCACAUGGUUAUGGUGAAATT against Cd200r1 | inactive: 0.108
103 | GGAGUUCUUUCAGACCUUATT against Cidea | inactive: -0.414
104 | GGGCAGCAUUUUUCUGAUATT against Mfap3 | inactive: 0.196
105 | GGCUUUAAGACAUAGUACUTT against Lbh | inactive: 1.53
106 | GGAGCUGACAGACUUCCUGTT against Fosl1 | inactive: -1.51
107 | GGAAUGGACCGGGUUCAUCTT against Fktn | inactive: -0.318

— PubChem BioAssay AID1508600 (Functional Genomics Laboratory (NCATS/FGL), 2020)
